This is one part of the list. The main result of the screen is listed elsewhere. These columns were measured beside it and carry no call. Most of these compounds were active or inconclusive in the main read-out, so they are no random draw. Words in brackets tell the shape of the fitted curve; partial curves, single points and poor fits give uncertain potencies.
Assay: qHTS Assay to Find Inhibitors of Chronic Active B-Cell Receptor Signaling
Conditions: ABC-DLBCL IkBa-CBG/CBR reporter, luminescence ratio (green luciferase fused to IkBa over red control in TMD8 lymphoma cells), 4 h
Method in brief: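 Doxycycline induced both beetle luciferases in TMD8 lymphoma cells; IKK-driven degradation limits the IkappaBalpha-fused green signal, while red luminescence normalises for cell number and nonspecific effects. Compounds tested up to 46 uM, 4 hrs.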

[1] = measured here: CBR red luminescence, cell number
[2] = measured here: IkBa-CBG green luminescence

Structure (SMILES)	AC50 [1]	AC50 [2]
O=C(Nc1ccccc1)C1=C(c2ccccc2)S(=O)(=O)CCS1(=O)=O	2.82 µM [falling, full curve]	–
Cc1ccc(S(=O)(=O)N2CCC(C(=O)N[C@@H](C)C(=O)Nc3ccc(F)cc3)CC2)cc1	3.16 µM [falling, full curve, poor fit]	–
O=C(CSc1nc(-c2ccccc2)c(-c2ccccc2)[nH]1)NCCN1C(=O)CSC1=O	35.5 µM [rising, single point]	20 µM [falling, single point]
Cc1nn2c(N)c(C#N)cnc2c1-c1ccccc1	20.6 µM [rising, single point]	–
Cc1cc(C)nc(N/N=C/c2ccco2)n1	13 µM [falling, partial curve, poor fit]	–
O=C(Oc1ccc(/C=N/NC(=O)c2ccccc2O)cc1)c1ccccc1	1.64 µM [falling, full curve]	–
COc1cccc(NC(=O)c2ccc(S(=O)(=O)NCc3cccnc3)cc2)c1	35.5 µM [falling, single point]	–
CCCn1c(CN2CCN(C(=O)OCC)CC2)nc2cc(NC(=O)CC)ccc21	12.6 µM [rising, single point]	22.4 µM [falling, single point]
CCOc1cccc2sc(N(Cc3cccnc3)C(=O)c3ccc(C#N)cc3)nc12	3.98 µM [falling, partial curve, poor fit]	–
O=c1[nH]c2ccccc2n1CCC1CCCCC1	2.31 µM [rising, partial curve, poor fit]	–
O=C(Cn1[nH]c(=O)c2ccccc2c1=O)Nc1cccnc1	7.08 µM [falling, full curve, poor fit]	–
CSCCC(NC(=O)COc1ccccc1)C(=O)N1CCN(c2ccccc2Cl)CC1 (stereo not given)	32.6 µM [falling, single point]	–
O=C(c1cccnc1)N1c2ccccc2Sc2ccccc21	35.5 µM [falling, single point]	–
CC1CCC(NC(=O)C(=O)Nc2ccc3c(c2)OCO3)CC1 (stereo not given)	0.708 µM [falling, full curve]	–
CN(C)c1ccc(/C=C(\C#N)c2ccccc2)cc1	35.5 µM [falling, single point]	17.8 µM [falling, partial curve]
Cn1c(=O)c2cc(NCc3ccccc3)nnc2n(C)c1=O	2 µM [falling, partial curve, poor fit]	–
CC(C)Oc1ccc(/C=C/C(=O)NCC2COc3ccccc3O2)cc1 (stereo not given)	17.8 µM [rising, partial curve, poor fit]	–
COc1ccc(-n2ncc3c(NCCCOC(C)C)ncnc32)cc1	35.5 µM [falling, single point]	–
O=C(Nc1ccc(Cl)cc1)[C@@H]1[C@@H]2C(=O)N(c3cccc(F)c3)C(=O)[C@@H]2[C@H]2C=CC=NN21	11.2 µM [falling, partial curve]	–
NC(=O)c1cc[n+](CC(=O)c2ccc(NC(=O)c3ccccc3)cc2)cc1	0.355 µM [rising, full curve, poor fit]	–
CC(OC(=O)Cc1n[nH]c(=O)c2ccccc12)C(=O)Nc1cc(Cl)cc(Cl)c1 (stereo not given)	23.1 µM [falling, single point]	–
COc1ccc(/C=N/NC(=O)Cn2nc(C)c([N+](=O)[O-])c2C)cc1	29.1 µM [rising, single point]	–

Structure (SMILES)	AC50 [1]	AC50 [2]
CN1CCc2c(c3c(n2C)CCN(C)[C@@H]3c2cccnc2)[C@H]1c1cccnc1	35.5 µM [falling, single point]	–
COc1ccc(OC)c(-n2c(Cn3c(-c4ccccn4)nc4ccccc43)n[nH]c2=S)c1	0.0794 µM [rising, full curve, poor fit]	–
O=C(O)/C=C\C(=O)Nc1ccccc1C(=O)NC1CCCCC1	1.12 µM [falling, partial curve, poor fit]	–
CC1=CC(=O)C=CC1(C)C(Cl)Cl (stereo not given)	6.31 µM [falling, single point]	–
O=C(CCl)Nc1cn(-c2ccccc2)nc1-c1ccccc1	12.6 µM [falling, partial curve]	35.5 µM [rising, partial curve, poor fit]
O=C(O)CCC(=O)Nc1nc2ccc([N+](=O)[O-])cc2s1	12.6 µM [falling, partial curve]	–
CCCCNC(=O)CC1C(=O)N(Cc2ccccc2)C(C)c2nc3ccccc3n21 (stereo not given)	0.0891 µM [falling, full curve, poor fit]	–
O=C(CCl)c1ccc2c(c1)CCN2C(=O)C1CCCCC1	15.8 µM [falling, single point]	–
Cc1cc(C)c(S(=O)(=O)Nc2cccnc2)c(C)c1	6.51 µM [falling, single point]	–
CN(c1ccc2nc3ccccc3c(=O)n2n1)C1CCCCC1	10 µM [falling, single point]	–
COc1ccc(CCNC(=O)CN2c3cccc4cccc(c34)S2(=O)=O)cc1	4.61 µM [rising, full curve, poor fit]	–
COc1ccccc1/C=C/C(=O)OCCCN(C)C	20 µM [falling, single point]	–
CC(C)(O)C#Cc1ccc(CN2CCCC(CO)(Cc3cccc(Cl)c3)C2)cc1 (stereo not given)	11.2 µM [falling, partial curve]	–
CCCCCCC1/C(=N\NC(=O)c2ccccc2)CCC1C(=O)OC (stereo not given)	20 µM [falling, partial curve]	–
C=CCNC(=S)N/N=C/c1ccc(-c2cc(Cl)ccc2Cl)o1	11.2 µM [rising, partial curve, poor fit]	–
CCOP(=O)(Cc1ccc(C(C)(C)CC(C)=O)o1)OCC	3.55 µM [rising, partial curve, poor fit]	–
CCc1ccc(NC(=O)c2noc3c2CCC3)cc1	11.6 µM [falling, single point]	–
CN1CCCC(CC2Oc3ccccc3Sc3ccccc32)C1 (stereo not given)	29.1 µM [falling, single point]	–
O=C(CSc1nc2ccccc2c(=O)[nH]1)Nc1ccccc1N1CCOCC1	3.55 µM [falling, partial curve, poor fit]	–
CC(C)(C)NC(=O)COC(=O)c1snc(C(=O)NC2CCCCC2)c1N	29.1 µM [falling, partial curve, poor fit]	–
Cc1cccc(OCC(=O)NCC(=O)N/N=C/c2ccc(O)cc2O)c1	25.1 µM [falling, single point]	–
CCCCC(=O)NC(c1cccc([N+](=O)[O-])c1)c1c(OC(C)=O)ccc2ccccc12 (stereo not given)	23.1 µM [falling, single point]	–

Structure (SMILES)	AC50 [1]	AC50 [2]
Cc1nc(Nc2c(Cl)cccc2Cl)sc1C(=O)Nc1ccccc1	1.64 µM [falling, full curve, poor fit]	–
COc1cccc(OCCn2cc(/C=N/NC(=O)c3ccncc3)c3ccccc32)c1	0.103 µM [rising, full curve, poor fit]	–
CCc1ccccc1NC(=O)CN(C)C(=O)Cn1ncc(Cl)c(Cl)c1=O	5.8 µM [falling, full curve]	6.51 µM [rising, full curve, poor fit]
COc1ccccc1NC(=S)N(Cc1cccnc1)Cc1ccccc1Cl	10 µM [rising, partial curve]	–
CCn1cnc2cc(NCc3nc4ccccc4n3Cc3ccccc3)ccc21	29.1 µM [falling, single point]	–
O=C(Nc1ccc(Br)cc1F)c1ccc2c(c1)OCCO2	6.31 µM [falling, full curve]	–
Cc1ccccc1OCC(=O)NNC(=S)NC(=O)c1ccco1	2.82 µM [falling, full curve]	–
Clc1cc(Br)ccc1OCCOCCOc1cccc2cccnc12	3.55 µM [rising, full curve]	–
Cc1nc2ccccc2c(=O)n1/N=C/c1cn(-c2ccccc2)nc1-c1cccs1	2.82 µM [falling, partial curve]	–
Cc1cc(Nc2ccccc2Cl)nc(-c2ccccc2O)n1	8.91 µM [falling, partial curve]	14.1 µM [rising, partial curve, poor fit]
Cn1c(CCN2CCCCC2)nc2cc(NC(=O)NC3CCCCC3)ccc21	5.62 µM [falling, partial curve, poor fit]	–
Cc1cc2c(cc1C)N(CC(=O)N1CCCC1)C(=O)CC(c1ccccc1)=N2	2.31 µM [rising, partial curve]	–
Cc1nc2sc(C(c3cccc(F)c3)N3CCC(C)CC3)c(O)n2n1 (stereo not given)	29.1 µM [falling, single point]	–
COc1cc2c(C)nc3c(cnn3-c3ccccc3)c2cc1OC	10 µM [rising, partial curve]	–
CC1(C)CCc2c([nH]c3ccccc3c2=O)O1	22.4 µM [rising, single point]	–
Cc1ccc(-c2csc(NC(=O)CN3C(=O)CCC3=O)n2)cc1	5.01 µM [falling, full curve]	–
CCCNc1nc2c(c(=O)n(C)c(=O)n2C)n1CCc1ccccc1	35.5 µM [falling, single point]	–
O=[N+]([O-])c1ccc(Cl)c2cccnc12	22.4 µM [falling, partial curve, poor fit]	–
CS(=O)(=O)N1CCN(c2nc(-c3ccccc3)cs2)CC1	29.1 µM [rising, single point]	–
COc1ccc(-n2c(SCC(N)=O)nc3sc4c(c3c2=O)CCC4)cc1	6.31 µM [rising, full curve, poor fit]	–

Reformatted with each value named: 4 of the compounds above.
Cc1nn2c(N)c(C#N)cnc2c1-c1ccccc1
  AC50 [1]: 20.6 µM [rising, single point]
CC(C)Oc1ccc(/C=C/C(=O)NCC2COc3ccccc3O2)cc1 (stereo not given)
  AC50 [1]: 17.8 µM [rising, partial curve, poor fit]
O=C(CSc1nc2ccccc2c(=O)[nH]1)Nc1ccccc1N1CCOCC1
  AC50 [1]: 3.55 µM [falling, partial curve, poor fit]
O=C(Nc1ccc(Br)cc1F)c1ccc2c(c1)OCCO2
  AC50 [1]: 6.31 µM [falling, full curve]
